PubChem BioAssay AID1508597 – Cure First | 2020
Test: 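Knock-downs altering ovarian cancer cell survival with or without PARP inhibitor rucaparib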 (primary screen). System: human ovarian carcinoma lines grown from tumours: OCI-P5x (papillary serous) and OCI-C5x (clear cell). Reagent: siRNA pool against human genes, 1.25 pmol siRNA per well. Time to read-out: 72 h or 96 h, depending on the cell culture. Conditions: rucaparib 20 µM (about IC30) or vehicle, present until read-out. Measured: 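ATP luminescence measured at 72 or 96 h according to the culture, then normalised and expressed as percent viability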. Scale: viability, normalised: higher = more viable cells remaining. Rule for the call: 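a well counts as a hit if its normalised viability is under 80 percent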. Meaning of the calls: active = viability under 80%; inactive = viability 80% or more.
Here is a random part of about 2,100 deposited reagents. 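Calls flag viability under 80% in either arm, not effects specific to rucaparib; the reference for percent is not stated.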 No sequences are given here. Not stated in the record: the 100% reference.

target | rucaparib or vehicle | cell line | technical replicate | viability, normalised (%) | Outcome
PRKAA2 | Rucaparib | OCI-C5x (clear cell) | 1 | 45.7 | active
PRKAA2 | Rucaparib | OCI-C5x (clear cell) | 2 | 57.5 | active
PRKAA2 | Rucaparib | OCI-C5x (clear cell) | 3 | 65.9 | active
PRKAA2 | Rucaparib | OCI-P5x (serous) | 1 | 99.6 | inactive
PRKAA2 | Rucaparib | OCI-P5x (serous) | 2 | 91.2 | inactive
PRKAA2 | Rucaparib | OCI-P5x (serous) | 3 | 93 | inactive
PRKAA2 | Vehicle | OCI-C5x (clear cell) | 1 | 52.8 | active
PRKAA2 | Vehicle | OCI-C5x (clear cell) | 2 | 91 | inactive
PRKAA2 | Vehicle | OCI-C5x (clear cell) | 3 | 45.8 | active
PRKAA2 | Vehicle | OCI-P5x (serous) | 1 | 80.5 | inactive
PRKAA2 | Vehicle | OCI-P5x (serous) | 2 | 79.4 | active
PRKAA2 | Vehicle | OCI-P5x (serous) | 3 | 81.3 | inactive
MAP3K9 | Rucaparib | OCI-C5x (clear cell) | 1 | 61.3 | active
MAP3K9 | Rucaparib | OCI-C5x (clear cell) | 2 | 44.2 | active
MAP3K9 | Rucaparib | OCI-C5x (clear cell) | 3 | 58.1 | active
MAP3K9 | Rucaparib | OCI-P5x (serous) | 1 | 70.7 | active
MAP3K9 | Rucaparib | OCI-P5x (serous) | 2 | 71.5 | active
MAP3K9 | Rucaparib | OCI-P5x (serous) | 3 | 75.7 | active
MAP3K9 | Vehicle | OCI-C5x (clear cell) | 1 | 72.7 | active
MAP3K9 | Vehicle | OCI-C5x (clear cell) | 2 | 60 | active
MAP3K9 | Vehicle | OCI-C5x (clear cell) | 3 | 47.6 | active
MAP3K9 | Vehicle | OCI-P5x (serous) | 1 | 72.7 | active
MAP3K9 | Vehicle | OCI-P5x (serous) | 2 | 79.5 | active
MAP3K9 | Vehicle | OCI-P5x (serous) | 3 | 63.4 | active
